In patent US9284303B2, “Benzimidazole cannabinoid agonists bearing a substituted heterocyclic group” (priority 2006, dated 2016):
The match of structure and compound is tentative.

Protein sequences, listed by entry. Tags and fused reporters are not part of them.
UniProt P34972, whole entry: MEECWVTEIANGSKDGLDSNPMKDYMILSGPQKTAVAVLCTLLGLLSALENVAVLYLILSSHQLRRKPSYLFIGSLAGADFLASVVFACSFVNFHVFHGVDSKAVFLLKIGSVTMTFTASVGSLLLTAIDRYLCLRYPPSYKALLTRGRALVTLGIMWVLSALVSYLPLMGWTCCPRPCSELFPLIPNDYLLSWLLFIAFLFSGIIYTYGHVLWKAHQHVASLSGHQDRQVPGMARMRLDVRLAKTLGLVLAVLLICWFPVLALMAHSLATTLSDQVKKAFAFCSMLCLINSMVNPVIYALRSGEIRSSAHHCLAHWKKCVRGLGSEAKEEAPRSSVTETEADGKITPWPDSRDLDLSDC
UniProt P21554, whole entry: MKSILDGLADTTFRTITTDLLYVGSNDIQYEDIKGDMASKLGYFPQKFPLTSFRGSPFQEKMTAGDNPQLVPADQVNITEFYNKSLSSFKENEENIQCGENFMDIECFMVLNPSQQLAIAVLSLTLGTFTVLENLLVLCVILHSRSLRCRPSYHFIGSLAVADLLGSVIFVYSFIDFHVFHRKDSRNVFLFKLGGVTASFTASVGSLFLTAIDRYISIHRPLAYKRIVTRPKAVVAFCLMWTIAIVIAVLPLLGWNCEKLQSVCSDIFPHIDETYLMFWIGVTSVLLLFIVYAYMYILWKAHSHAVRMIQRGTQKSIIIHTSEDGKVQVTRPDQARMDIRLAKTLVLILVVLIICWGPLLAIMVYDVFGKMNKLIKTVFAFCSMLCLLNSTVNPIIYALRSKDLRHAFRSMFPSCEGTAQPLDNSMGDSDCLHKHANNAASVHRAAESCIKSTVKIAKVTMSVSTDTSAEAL

Key:
[1] = molecular target: human CB2 (hCB2) receptor (Homo sapiens, UniProt P34972); test: Inhibition of forskolin-activated cAMP production upon activation of hCB2 (HTRF), CHO-K1 cells; type: cell-based
[2] = molecular target: human CB1 (hCB1) receptor (Homo sapiens, UniProt P21554); test: Inhibition of forskolin-activated cAMP production upon activation of hCB1 (HTRF), CHO-K1 cells; type: cell-based; conditions: pEC50=-log(EC50)
Method: Functional activity of the test compounds was assessed by measuring their potency to inhibit forskolin-activated cAMP production upon activation of the human CB1 (hCB1) or human CB2 (hCB2) receptor through homogenous time resolved fluorescence (HTRF) assays.
CHO-K1 cells stably transfected with either hCB1 or hCB2 were grown up to 80-90% confluence in T175 Falcon flasks in DMEM/NUT MIX F-12 culture medium complemented with 2% Solution A (5.10^6 IU/l penicillin G, 5 g/l streptomycin sulphate, 5.5 g/l pyruvate, 14.6 g/l L-glutamine, 1M NaOH) and 10% foetal calf serum. Before the experiments, medium was removed, cells were washed with PBS/EDTA (140 mM NaCl, 1 mM Naz-EDTA, 8 mM Na2HPO4.2H2O, 8.5 mM KH2PO4, 2.7 mM KCl, 21 mM glucose), resuspended in stimulation buffer (HBSS 1x, IBMX 1 mM, Hepes 5 mM, MgCl2 10 mM, BSA 0.1%, pH 7.4). Cells were diluted to a concentration of 8.10^5 cell/ml for hCB1 experiments and 10^6 cells/ml for hCB2 experiments. Assays were performed using the cAMP Dynamic HTRF kit (CIS bio international, France) according to the recommendations of the manufacturer. […]
After equilibration of the reaction mixtures for 1 to 24 hours in dark at room temperature, fluorescence was measured at 665 nm and 620 nm using a Discovery microplate fluorescence counter (Perkin Elmer), and the signal ratio of 665 nm/620 nm was calculated. […]

CC1=C([S+]([O-])c2ccc3c(c2)nc(C(C)(C)C)n3CC2CCOCC2)C=N[NH+]1[O-] (stereo not drawn)
ratio CB2 agonism over CB1 agonism ([1]; Table C-1, selectivity hCB2 over hCB1): 437 | CB2 pEC50 ([1]; hCB2-CHO-K1 cells, forskolin-activated cAMP, pEC50=-log(EC50)): 8.75 | CB1 pEC50 [2]: 6.11
